Results from patent US8198236B2, “Methods and compositions for the treatment of cancer” (Washington University, priority 2007, dated 2012).
Some entries share one result that the patent states for a list of compounds.

By UniProt entry, the sequences of proteins in these tests, tags left out. Residues count along the entry.
UniProt O75581, 20-1613: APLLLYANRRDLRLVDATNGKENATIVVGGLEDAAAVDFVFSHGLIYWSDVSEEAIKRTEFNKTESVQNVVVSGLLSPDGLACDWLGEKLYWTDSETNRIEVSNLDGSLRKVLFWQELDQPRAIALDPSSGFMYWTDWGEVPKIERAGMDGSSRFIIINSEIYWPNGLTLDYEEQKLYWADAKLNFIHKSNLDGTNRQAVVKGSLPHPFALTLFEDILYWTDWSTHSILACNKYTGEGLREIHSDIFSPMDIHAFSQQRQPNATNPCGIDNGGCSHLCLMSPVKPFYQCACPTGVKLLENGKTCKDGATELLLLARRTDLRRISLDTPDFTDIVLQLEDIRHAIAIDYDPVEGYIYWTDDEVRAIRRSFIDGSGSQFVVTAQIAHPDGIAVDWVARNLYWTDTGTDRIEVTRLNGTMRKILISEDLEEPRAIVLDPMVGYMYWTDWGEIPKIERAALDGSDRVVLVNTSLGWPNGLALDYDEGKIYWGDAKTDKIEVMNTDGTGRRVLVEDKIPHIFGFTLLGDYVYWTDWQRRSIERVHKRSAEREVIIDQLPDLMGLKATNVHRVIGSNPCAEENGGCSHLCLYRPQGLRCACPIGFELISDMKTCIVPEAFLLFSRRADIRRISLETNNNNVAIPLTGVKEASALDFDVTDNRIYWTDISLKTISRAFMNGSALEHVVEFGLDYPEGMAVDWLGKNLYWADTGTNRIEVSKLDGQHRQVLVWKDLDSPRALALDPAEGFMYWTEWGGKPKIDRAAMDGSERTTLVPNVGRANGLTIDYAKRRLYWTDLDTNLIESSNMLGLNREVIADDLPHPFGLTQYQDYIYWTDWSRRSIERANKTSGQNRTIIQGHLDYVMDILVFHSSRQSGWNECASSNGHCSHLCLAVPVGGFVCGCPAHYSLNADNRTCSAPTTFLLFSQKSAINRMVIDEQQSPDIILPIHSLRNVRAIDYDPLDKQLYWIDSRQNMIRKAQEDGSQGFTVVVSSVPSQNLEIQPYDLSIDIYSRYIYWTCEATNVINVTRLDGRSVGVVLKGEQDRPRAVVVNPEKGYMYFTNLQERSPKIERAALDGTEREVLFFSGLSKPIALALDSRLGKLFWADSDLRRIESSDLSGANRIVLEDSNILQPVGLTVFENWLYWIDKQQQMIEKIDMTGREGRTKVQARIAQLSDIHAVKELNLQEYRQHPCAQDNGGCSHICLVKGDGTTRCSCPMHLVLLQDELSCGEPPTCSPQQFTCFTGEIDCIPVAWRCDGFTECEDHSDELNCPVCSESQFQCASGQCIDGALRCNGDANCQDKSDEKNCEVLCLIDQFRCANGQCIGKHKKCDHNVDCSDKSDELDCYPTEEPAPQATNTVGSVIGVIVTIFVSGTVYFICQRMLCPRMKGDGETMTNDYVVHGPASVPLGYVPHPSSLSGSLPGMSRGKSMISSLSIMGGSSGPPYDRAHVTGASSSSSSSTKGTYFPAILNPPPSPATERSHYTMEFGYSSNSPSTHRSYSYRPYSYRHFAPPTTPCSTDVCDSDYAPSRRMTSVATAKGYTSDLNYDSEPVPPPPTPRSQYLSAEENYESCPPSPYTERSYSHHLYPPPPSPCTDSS
UniProt O75197, 32-1615: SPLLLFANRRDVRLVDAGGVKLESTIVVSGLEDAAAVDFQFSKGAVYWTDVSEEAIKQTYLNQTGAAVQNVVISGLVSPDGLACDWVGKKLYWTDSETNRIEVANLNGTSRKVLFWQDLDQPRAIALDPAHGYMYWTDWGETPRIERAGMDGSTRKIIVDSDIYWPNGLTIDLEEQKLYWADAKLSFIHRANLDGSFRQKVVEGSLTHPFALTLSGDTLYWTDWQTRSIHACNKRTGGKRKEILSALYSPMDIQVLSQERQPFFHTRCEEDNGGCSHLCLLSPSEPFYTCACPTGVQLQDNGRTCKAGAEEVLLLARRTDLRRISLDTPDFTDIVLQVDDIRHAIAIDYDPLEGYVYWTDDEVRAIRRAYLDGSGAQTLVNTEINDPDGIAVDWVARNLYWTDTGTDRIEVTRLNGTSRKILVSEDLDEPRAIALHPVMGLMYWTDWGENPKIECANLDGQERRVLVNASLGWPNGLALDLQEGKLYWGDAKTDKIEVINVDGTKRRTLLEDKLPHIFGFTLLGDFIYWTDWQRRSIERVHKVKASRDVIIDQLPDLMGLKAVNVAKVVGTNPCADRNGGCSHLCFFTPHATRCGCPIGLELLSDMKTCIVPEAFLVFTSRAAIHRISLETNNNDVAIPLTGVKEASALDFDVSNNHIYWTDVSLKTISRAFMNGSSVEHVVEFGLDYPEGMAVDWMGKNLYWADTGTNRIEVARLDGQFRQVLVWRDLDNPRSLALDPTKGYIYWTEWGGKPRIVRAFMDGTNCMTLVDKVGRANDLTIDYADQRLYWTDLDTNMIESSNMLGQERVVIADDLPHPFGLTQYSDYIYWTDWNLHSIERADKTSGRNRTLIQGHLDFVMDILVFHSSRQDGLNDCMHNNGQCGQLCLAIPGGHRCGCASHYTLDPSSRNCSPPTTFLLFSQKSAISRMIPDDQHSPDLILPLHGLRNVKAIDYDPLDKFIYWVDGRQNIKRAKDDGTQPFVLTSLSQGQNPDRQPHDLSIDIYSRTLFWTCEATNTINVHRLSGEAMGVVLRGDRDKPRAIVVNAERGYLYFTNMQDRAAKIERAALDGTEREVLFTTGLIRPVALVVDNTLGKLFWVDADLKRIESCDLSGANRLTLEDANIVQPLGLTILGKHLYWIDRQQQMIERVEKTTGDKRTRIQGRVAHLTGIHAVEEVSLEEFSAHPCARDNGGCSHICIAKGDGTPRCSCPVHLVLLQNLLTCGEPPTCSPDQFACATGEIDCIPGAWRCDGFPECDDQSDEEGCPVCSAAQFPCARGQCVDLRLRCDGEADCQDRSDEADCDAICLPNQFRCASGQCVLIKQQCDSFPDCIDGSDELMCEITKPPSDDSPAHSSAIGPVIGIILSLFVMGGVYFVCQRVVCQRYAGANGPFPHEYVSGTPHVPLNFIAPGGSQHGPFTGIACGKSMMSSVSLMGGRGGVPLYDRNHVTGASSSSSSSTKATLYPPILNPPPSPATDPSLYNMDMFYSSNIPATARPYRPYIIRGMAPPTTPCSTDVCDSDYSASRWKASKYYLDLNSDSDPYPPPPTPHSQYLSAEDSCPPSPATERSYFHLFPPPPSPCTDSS

Assays:
LRP6 = target: T1, LRP6 (Homo sapiens, UniProt O75581); test: 125I-DKK1 binding to LRP6; settings: FIG. 10D
T1 construct: expressed in transfected cells; host or cells: human HT1080 cells, retroviral vector pLNCX2
Protocol: Cells (2×10^5) were seeded into 12-well dishes 1 day prior to assay. Ligand-binding buffer (minimal Eagle's medium containing 0.6% BSA with a different concentration of radioligand, 0.6 ml/well) was added to cell monolayers, in the absence or the presence of 500 nM unlabeled RAP or 500 nM unlabeled Mesd, followed with incubation for 0-4 hours at 4° C. Thereafter, overlying buffer containing unbound ligand was removed, and cell monolayers were washed and lysed in low-SDS lysis buffer (62.5 mM Tris-HCl pH 6.8, 0.2% SDS, 10% v/glycerol) and counted.
RAP is a receptor antagonist for members of the LDLR family, and is able to inhibit the binding of most known ligands of the LDLR family members. DKK1 is an LRP6-specific ligand and antagonist. […] In these experiments, Serum-free conditioned medium was harvested from HEK293 cells transiently transfected with cDNA for human Myc-DKK1 and allowed to bind to LRP6-transduced HT1080 cells (B,C) and control cells (A) in the absence (A,B) or presence (C) of 1 μM Mesd. Cell-surface-bound Myc-tagged DKK proteins were fixed and detected by immunofluorescence staining with anti-Myc antibody. (D) DKK1 binding to cell surface LRP6 is inhibited by Mesd. Binding of 125I-DKK1 (5 nM) to LRP6-transduced HT1080 cells or the control cells was carried out for 3 hours at 4° C. in the absence (total) or presence of 500 nM RAP or 500 nM Mesd. […]

LRP5 = LRP5 (Homo sapiens, UniProt O75197); test: Competition for 125I-Mesd binding to LRP5; settings: FIG. 10A

KGGGSKEKNKTKPEKAKKKEGDPKPRASKEDNRAGSR [SEQ ID NO: 20]
Reduction in binding of 125I-DKK1 to LRP6 (LRP6): greater than 2 fold | Reduction of binding of 125I-Mesd to LRP5 (LRP5): up to 10 fold

B1: Mesd: Recombinant full-length mouse Mesd expressed in E. coli, N-terminal polyhistidine tail, lacking the signal peptide (protein)
chain: ADTPGEATPPPRKKKDIRDYNDADMARLLEQWEKDDDIEEGDLPEHKRPSAPIDFSKLDPGKPESILKMTKKGKTLMMFVTVSGNPTEKETEEITSLWQGSLFNANYDVQRFIVGSDRAIFMLRDGSYAWEIKDFLVSQDRCAEVTLEGQMYPGKGGGSKEKNKTKPEKAKKKEGDRKPRASKEDNRAGSRREDL
modifications: left off: small tags and cut ends
notes: Recombinant full-length mouse Mesd expressed in E. coli, N-terminal polyhistidine tail, lacking the signal peptide
Reduction in binding of 125I-DKK1 to LRP6 (LRP6): greater than 2 fold | Reduction of binding of 125I-Mesd to LRP5 (LRP5): up to 10 fold
